Test results: article PMC8201222
These are yes or no findings as the source states them, for the method shown. In cells and extracts the contact can be indirect. Here binding means that the protein was enriched with, or labelled near, the bait; the list need not be complete. Tags and fused reporters may be left off the sequences shown.

Chains of the proteins cited; added tags and fusions are not shown.
UniProt Q7KZF4: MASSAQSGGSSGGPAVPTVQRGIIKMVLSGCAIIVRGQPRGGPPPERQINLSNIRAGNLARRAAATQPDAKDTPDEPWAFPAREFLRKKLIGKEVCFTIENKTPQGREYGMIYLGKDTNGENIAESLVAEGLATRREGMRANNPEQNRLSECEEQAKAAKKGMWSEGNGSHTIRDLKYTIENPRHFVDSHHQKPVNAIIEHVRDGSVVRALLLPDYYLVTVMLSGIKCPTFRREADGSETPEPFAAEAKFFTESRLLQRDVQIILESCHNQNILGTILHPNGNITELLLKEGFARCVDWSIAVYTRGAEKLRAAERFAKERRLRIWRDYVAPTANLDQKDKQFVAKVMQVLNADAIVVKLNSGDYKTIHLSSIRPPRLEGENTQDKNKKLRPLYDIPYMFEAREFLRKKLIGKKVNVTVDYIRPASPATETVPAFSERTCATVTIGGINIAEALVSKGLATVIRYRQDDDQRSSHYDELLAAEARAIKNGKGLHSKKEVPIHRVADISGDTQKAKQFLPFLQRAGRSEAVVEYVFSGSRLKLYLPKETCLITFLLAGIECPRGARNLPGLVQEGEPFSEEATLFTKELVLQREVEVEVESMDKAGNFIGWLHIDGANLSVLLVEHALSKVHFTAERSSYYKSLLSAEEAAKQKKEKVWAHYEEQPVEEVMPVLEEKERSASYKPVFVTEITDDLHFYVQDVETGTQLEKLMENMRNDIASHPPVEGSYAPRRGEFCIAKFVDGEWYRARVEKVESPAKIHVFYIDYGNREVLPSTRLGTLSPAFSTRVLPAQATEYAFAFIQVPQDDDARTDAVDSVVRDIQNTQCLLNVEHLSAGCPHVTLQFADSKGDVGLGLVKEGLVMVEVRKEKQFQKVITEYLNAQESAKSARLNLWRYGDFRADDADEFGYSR

Molecular target: T1, HA-tagged astrocyte elevated gene-1 (AEG-1) (human) (UniProt Q86UE4)
T1 sequence: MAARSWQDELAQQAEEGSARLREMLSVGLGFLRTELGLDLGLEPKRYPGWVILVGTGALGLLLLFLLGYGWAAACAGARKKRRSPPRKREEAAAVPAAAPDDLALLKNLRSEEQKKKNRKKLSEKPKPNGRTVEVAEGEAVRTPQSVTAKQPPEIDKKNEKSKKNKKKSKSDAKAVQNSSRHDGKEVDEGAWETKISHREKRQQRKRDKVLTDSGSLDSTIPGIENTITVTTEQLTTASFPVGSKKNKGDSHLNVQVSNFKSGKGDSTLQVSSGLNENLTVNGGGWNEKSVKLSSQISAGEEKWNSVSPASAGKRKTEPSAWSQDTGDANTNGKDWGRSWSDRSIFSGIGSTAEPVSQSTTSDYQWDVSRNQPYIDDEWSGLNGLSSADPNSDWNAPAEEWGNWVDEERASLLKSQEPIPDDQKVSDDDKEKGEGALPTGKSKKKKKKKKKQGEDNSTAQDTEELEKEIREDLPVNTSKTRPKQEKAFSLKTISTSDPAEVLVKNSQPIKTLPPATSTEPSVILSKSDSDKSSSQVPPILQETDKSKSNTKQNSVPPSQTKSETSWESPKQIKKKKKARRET
Experiment: affinity purification with mass spectrometry; 293T cells transfected with EV or pcDNA3.1-AEG-1-HA; anti-HA IP of lysates at 4 °C overnight, protein A/G agarose beads, 5 washes with NETN lysis buffer; in-gel digestion, LC-MS/MS; hits filtered by a scatter plot of LFQ values (Perseus)

SND1 (from UniProt Q7KZF4 1-910)
binding: binds
